The supplement of paper PMC12067093, “Discovery and optimisation of a covalent ligand for TRIM25 and its application to targeted protein ubiquitination” (Chemical Science, 2025)
This is one part of the list.

Sequences of proteins named here, by UniProt entry; tags and fusion partners are left off. A change or cut given only in a name is not applied to a line headed by its entry.
UniProt Q99698: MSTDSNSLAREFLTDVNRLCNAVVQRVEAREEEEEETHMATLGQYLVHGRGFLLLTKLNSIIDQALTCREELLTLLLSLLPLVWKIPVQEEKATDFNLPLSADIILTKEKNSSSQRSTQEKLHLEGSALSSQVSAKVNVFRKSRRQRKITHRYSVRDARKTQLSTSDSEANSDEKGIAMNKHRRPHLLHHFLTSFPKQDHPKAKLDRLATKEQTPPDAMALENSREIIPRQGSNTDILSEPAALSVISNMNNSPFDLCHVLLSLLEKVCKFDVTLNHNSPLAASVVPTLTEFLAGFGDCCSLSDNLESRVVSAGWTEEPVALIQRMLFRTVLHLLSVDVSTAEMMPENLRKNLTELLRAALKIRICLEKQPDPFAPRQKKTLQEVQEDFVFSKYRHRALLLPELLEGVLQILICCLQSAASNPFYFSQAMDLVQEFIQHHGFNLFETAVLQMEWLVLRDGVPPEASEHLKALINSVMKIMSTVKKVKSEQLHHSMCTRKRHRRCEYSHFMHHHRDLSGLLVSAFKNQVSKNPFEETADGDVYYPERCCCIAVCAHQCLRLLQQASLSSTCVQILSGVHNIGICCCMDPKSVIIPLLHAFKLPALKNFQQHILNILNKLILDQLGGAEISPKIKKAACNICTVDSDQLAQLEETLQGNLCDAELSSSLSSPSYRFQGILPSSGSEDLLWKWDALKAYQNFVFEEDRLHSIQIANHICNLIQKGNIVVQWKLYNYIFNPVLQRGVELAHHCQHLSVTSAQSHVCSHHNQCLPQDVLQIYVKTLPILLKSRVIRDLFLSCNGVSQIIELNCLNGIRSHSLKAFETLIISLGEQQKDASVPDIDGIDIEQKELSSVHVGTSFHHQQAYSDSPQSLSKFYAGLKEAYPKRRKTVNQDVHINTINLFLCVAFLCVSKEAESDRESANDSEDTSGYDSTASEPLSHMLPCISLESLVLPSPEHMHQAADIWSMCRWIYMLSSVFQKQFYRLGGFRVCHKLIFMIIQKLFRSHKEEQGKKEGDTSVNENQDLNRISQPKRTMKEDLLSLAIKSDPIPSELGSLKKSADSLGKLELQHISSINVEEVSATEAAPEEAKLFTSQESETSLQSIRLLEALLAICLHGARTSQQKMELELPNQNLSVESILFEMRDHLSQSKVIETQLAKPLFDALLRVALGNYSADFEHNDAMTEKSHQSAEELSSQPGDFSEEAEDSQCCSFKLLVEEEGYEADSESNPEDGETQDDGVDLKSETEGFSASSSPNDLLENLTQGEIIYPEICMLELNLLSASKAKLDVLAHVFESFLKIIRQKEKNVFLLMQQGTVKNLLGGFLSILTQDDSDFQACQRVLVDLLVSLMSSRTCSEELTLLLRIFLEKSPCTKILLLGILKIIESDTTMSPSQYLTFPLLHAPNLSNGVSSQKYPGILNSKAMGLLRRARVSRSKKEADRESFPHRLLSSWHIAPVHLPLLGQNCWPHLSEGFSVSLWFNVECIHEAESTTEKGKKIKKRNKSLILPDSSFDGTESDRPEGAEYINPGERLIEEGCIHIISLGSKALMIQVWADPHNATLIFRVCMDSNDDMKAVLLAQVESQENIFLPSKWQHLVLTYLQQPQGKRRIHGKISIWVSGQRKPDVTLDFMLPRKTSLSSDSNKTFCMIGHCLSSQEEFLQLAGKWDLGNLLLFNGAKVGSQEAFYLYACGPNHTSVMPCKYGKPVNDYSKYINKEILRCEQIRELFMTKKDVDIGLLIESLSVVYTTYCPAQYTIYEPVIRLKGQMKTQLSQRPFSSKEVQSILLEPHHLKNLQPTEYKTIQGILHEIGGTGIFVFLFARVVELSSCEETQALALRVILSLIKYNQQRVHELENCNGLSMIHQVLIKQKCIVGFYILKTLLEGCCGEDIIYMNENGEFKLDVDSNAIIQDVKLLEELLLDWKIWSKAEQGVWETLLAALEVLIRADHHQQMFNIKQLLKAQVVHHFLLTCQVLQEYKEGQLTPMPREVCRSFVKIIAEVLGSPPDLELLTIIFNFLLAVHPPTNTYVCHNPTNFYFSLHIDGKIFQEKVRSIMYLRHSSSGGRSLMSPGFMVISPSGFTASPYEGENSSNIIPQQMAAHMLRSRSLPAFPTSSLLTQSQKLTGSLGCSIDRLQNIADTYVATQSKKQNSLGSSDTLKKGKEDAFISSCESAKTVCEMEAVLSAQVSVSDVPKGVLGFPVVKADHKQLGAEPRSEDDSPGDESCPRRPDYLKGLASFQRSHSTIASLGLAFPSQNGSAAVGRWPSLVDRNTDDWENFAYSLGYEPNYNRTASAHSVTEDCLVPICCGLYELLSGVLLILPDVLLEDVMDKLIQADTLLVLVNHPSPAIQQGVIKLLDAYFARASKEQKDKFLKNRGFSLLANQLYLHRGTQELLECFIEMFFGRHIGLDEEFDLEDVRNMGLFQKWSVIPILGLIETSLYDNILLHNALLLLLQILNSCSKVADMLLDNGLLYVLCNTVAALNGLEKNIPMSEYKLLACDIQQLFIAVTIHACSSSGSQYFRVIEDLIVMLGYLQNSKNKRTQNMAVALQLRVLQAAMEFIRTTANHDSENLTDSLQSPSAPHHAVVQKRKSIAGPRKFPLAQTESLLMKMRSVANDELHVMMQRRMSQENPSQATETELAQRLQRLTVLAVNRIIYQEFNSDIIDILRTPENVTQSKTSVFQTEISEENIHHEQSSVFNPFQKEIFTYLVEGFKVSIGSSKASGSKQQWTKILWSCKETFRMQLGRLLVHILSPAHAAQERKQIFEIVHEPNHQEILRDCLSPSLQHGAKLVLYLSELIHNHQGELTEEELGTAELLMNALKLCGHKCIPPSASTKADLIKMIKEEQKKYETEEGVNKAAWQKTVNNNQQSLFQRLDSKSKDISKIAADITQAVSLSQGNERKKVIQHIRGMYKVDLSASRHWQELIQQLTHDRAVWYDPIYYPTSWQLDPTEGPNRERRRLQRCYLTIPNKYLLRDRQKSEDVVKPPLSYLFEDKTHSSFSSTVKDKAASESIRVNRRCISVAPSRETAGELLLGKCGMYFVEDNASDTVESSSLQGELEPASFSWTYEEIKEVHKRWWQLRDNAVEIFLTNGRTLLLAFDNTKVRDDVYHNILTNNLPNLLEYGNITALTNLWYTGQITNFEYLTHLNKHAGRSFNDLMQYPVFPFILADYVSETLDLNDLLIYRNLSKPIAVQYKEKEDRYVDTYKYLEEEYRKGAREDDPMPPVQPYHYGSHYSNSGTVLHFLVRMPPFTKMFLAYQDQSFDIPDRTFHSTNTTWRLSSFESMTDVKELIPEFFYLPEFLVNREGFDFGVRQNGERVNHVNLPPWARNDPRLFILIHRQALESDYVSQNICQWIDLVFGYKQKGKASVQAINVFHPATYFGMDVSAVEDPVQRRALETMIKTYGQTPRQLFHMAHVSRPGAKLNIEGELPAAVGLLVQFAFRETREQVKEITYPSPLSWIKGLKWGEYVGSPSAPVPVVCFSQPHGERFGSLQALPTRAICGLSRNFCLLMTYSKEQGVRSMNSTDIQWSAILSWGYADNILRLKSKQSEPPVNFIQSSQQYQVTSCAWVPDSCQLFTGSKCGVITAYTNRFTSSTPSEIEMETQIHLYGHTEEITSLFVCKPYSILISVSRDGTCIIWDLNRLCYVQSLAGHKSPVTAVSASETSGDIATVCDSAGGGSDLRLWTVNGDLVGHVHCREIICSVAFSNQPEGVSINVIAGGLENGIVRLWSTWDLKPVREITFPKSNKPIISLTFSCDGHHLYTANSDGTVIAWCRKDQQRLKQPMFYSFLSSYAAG
UniProt O94822: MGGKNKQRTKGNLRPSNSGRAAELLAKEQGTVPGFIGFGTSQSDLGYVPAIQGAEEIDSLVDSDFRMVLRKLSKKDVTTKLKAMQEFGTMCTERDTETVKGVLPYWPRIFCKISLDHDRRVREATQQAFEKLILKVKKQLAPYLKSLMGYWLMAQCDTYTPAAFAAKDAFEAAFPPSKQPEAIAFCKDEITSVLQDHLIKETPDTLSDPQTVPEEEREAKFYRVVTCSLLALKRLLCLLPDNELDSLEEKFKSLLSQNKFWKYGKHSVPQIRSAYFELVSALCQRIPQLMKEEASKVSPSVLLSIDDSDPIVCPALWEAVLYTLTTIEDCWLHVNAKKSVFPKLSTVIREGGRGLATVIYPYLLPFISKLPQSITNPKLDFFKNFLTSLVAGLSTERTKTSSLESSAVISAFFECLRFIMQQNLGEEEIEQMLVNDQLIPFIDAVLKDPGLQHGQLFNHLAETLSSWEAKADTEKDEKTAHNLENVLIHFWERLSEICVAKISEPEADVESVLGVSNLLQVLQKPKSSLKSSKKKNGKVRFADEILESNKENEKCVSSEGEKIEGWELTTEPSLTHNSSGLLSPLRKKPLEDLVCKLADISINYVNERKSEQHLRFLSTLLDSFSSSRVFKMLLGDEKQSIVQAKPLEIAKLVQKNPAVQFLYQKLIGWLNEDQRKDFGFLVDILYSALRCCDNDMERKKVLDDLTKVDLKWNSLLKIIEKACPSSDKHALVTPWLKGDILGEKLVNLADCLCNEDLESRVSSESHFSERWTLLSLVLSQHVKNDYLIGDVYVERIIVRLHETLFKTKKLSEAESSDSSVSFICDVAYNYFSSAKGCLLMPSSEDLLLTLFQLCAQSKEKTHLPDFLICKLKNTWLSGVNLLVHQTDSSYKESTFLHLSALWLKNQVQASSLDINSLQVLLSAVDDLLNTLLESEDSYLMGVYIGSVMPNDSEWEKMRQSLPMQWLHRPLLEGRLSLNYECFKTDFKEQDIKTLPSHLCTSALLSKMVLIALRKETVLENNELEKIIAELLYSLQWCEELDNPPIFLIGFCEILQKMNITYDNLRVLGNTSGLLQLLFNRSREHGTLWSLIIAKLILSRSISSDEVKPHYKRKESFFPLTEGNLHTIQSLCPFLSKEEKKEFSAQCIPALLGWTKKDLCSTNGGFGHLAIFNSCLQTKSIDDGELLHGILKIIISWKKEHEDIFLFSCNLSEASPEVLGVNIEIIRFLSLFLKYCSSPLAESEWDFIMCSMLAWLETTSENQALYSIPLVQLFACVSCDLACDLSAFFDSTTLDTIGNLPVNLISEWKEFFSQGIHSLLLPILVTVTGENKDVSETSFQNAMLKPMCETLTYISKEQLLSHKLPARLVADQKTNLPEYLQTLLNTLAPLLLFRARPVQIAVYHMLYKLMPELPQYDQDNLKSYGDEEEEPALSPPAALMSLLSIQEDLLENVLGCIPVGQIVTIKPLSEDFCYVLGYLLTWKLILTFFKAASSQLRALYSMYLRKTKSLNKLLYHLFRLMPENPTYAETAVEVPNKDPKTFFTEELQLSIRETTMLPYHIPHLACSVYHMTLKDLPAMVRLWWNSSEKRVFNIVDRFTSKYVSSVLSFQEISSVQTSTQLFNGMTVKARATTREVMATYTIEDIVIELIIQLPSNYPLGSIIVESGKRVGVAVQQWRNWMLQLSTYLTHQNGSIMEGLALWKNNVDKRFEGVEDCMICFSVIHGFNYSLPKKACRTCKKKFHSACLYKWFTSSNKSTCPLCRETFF
UniProt Q9Y6D9: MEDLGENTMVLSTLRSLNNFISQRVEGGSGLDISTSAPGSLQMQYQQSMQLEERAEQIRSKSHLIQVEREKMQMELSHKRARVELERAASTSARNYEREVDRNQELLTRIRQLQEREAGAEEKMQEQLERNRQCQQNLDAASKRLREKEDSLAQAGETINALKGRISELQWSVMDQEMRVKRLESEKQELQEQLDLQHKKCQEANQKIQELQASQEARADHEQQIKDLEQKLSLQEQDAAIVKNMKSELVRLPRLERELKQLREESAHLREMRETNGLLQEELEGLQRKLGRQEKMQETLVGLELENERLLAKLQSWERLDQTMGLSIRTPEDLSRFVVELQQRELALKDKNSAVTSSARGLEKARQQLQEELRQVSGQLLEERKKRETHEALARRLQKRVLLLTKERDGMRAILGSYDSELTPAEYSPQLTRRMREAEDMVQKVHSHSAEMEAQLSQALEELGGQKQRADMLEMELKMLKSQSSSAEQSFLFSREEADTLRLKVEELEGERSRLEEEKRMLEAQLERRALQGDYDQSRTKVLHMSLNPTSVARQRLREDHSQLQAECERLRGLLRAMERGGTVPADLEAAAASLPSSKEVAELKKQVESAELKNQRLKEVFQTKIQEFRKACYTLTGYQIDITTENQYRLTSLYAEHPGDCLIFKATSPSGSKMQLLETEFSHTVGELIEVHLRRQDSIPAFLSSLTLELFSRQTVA
UniProt P20645: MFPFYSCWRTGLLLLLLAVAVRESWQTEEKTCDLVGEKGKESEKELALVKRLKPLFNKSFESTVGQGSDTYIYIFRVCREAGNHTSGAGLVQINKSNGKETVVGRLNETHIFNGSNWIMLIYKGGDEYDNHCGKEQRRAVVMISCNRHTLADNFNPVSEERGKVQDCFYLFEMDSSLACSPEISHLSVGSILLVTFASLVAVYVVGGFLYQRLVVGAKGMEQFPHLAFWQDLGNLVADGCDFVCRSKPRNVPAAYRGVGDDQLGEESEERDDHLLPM

Compound: CC1Cc2ccccc2N1C(=O)C1CCCN(C1)C(=O)CCl (mixture of isomers) [TRIM25 ligand 11 (diastereomer mixture)]
Experiment: probe-labelled cysteine peptide fold change vs DMSO (competition) (log2 fold change); higher = less target engagement (more negative = stronger competition)
Settings: THP-1, incubation time: 4 h
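Further: competitive chemoproteomic profiling in live THP-1 cells with an iodoacetamide desthiobiotin (IA-DTB) probe, comparing probe-labelled peptide intensities in compound-treated cells against DMSO-treated controls.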

Row | Target | probe-labelled cysteine peptide fold change (10 µM) | probe-labelled cysteine peptide fold change (50 µM)
1 | MAZ_P56270_424_VHSQGPHHVCELCNK (UniProt P56270) | -0.0165 | -0.273
2 | MAP3K3_Q99759_430_IVQYYGCLR (UniProt Q99759) | 0.011 | 0.0294
3 | LYST_Q99698_504_CEYSHFMHHHR (UniProt Q99698) | 0.17 | -0.000316
4 | LTN1_O94822_1131_ESFFPLTEGNLHTIQSLCPFLSK (UniProt O94822) | -0.0229 | -0.0456
5 | LYST_Q99698_2127_LTGSLGCSIDR (UniProt Q99698) | 0.061 | 0.105
6 | MAT2B_Q9NZL9_17_ELSIHFVPGSCR (UniProt Q9NZL9) | -0.0429 | -0.0991
7 | LTA4H_P09960_147_AILPCQDTPSVK (UniProt P09960) | -0.0428 | -0.0947
8 | MAD1L1_Q9Y6D9_134_QCQQNLDAASK (UniProt Q9Y6D9) | -0.11 | -0.317
9 | MAP1S_Q66K74_841_HDPLPDPLKVPPPLPDPSSICMVDPEMLPPK (UniProt Q66K74) | -0.202 | 
10 | MAP7D1_Q3KQU3_251_CSVSAVNLPK (UniProt Q3KQU3) | -0.00301 | -0.0811
11 | MARS_P56192_309_QWNTLYLCGTDEYGTATETK (UniProt P56192) | 0.206 | 0.143
12 | LYN_P07948_219_QADGLCR (UniProt P07948) | -0.0504 | 0.114
13 | MAT2B_Q9NZL9_263_YEMACAIADAFNLPSSHLRPITDSPVLGAQRPR (UniProt Q9NZL9) | -0.239 | -0.039
14 | M6PR_P20645_145_RAVVMISCNR (UniProt P20645) | -0.0955 | -0.0915

Excerpt, entries 4–6
Row | Target | probe-labelled cysteine peptide fold change (10 µM) | probe-labelled cysteine peptide fold change (50 µM)
4 | LTN1_O94822_1131_ESFFPLTEGNLHTIQSLCPFLSK (UniProt O94822) | -0.0229 | -0.0456
5 | LYST_Q99698_2127_LTGSLGCSIDR (UniProt Q99698) | 0.061 | 0.105
6 | MAT2B_Q9NZL9_17_ELSIHFVPGSCR (UniProt Q9NZL9) | -0.0429 | -0.0991
